# Laboratory results as given in the supplement of paper PMC10373366.
# Structures can show the parent of a compound that is named as a salt. The list shows a part of the results. Repeats are few or missing, and single values can be far off.
# Key:
# [1] = test system: A2780; assay: cell growth inhibition ratio vs untreated control (CCK8); higher = stronger inhibition of cell viability; details: 10 µM; 48 h
# Procedure: (§1)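 Natural product library (Topscience) screened at 10 µM final concentration for 48 h on ovarian cancer A2780 cells and patient-derived ovarian cancer cells (PDC) in 96-well plates; viability read by CCK8 and reported as inhibition ratio (%) relative to untreated control. Single-dose primary screen.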
# [2] = test system: patient-derived ovarian cancer cells (PDC); assay: as above; details: 10 µM; 48 h
# Procedure: as §1
Structure (SMILES),cell growth inhibition ratio [1] [%],cell growth inhibition ratio [2] [%]
COC1=C(OC)C(=O)C(C/C=C(\C)CC/C=C(\C)CC/C=C(\C)CC/C=C(\C)CC/C=C(\C)CC/C=C(\C)CC/C=C(\C)CC/C=C(\C)CC/C=C(\C)CCC=C(C)C)=C(C)C1=O [Coenzyme Q10 (CoQ10)],12.1,5.51
CCOc1cc(C=O)ccc1OC(C)=O [Ethyl vanillin acetate],-2.78,7.68
C[C@@H]1CC[C@@]2(OC1)O[C@H]1C[C@H]3[C@@H]4CC=C5C[C@@H](O)CC[C@]5(C)[C@H]4CC[C@]3(C)[C@H]1[C@@H]2C [Diosgenin],11.8,10.2
O=c1cc(-c2ccc(O)cc2)oc2cc(O)c(O)c(O)c12 [Scutellarein],7.41,-10.5
COc1c2c(cc3oc(CO[C@@H]4O[C@H](CO)[C@@H](O)[C@H](O)[C@H]4O)cc(=O)c13)O[C@H](C(C)(C)O)C2,2.47,-2.02
CC1(C)CC[C@]2(C(=O)O[C@@H]3O[C@H](CO[C@@H]4O[C@H](CO)[C@@H](O)[C@H](O)[C@H]4O)[C@@H](O)[C@H](O)[C@H]3O)CC[C@]3(C)C(=CC[C@@H]4[C@@]5(C)CC[C@H](O[C@@H]6OC[C@H](O)[C@H](O)[C@H]6O)[C@@](C)(CO)[C@@H]5CC[C@]43C)[C@@H]2C1 [Asperosaponin Ⅵ],25.7,-4.51
COc1cc2c(c(OC)c1OC)-c1c(cc(OC)c(OC)c1OC)C[C@](C)(O)[C@@H](C)C2 [Schisandrin],6.19,8.6
C[C@@H]1O[C@@H](OC[C@H]2O[C@@H](Oc3c(-c4ccc(O)c(O)c4)oc4cc(O)cc(O)c4c3=O)[C@H](O)[C@@H](O)[C@@H]2O)[C@H](O)[C@H](O)[C@H]1O [Rutin],6.67,-1.4
Nc1ccn([C@@H]2O[C@H](CO)[C@@H](O)[C@H]2O)c(=O)n1 [Cytidine],8.12,2.91
CC(C)(CO)[C@@H](O)C(=O)NCCCO [Dexpanthenol],12.1,-7.26
C/C=C1/[C@H](O[C@@H]2O[C@H](CO)[C@@H](O)[C@H](O)[C@H]2O)OC=C(C(=O)OC)[C@H]1CC(=O)OCCc1ccc(O)c(O)c1 [Oleuropein],7.63,-10
C=C(C)[C@H]1CC=C(C)CC1 [(R)-(+)-Limonene],12,18.2
CC1=C(/C=C/C(C)=C/C=C/C(C)=C/C=C/C=C(C)/C=C/C=C(C)/C=C/C2=C(C)C(=O)[C@@H](O)CC2(C)C)C(C)(C)C[C@H](O)C1=O [Astaxanthin],1.95,23
"OCCc1ccc(O)c(O)c1 [3,4-Dihydroxyphenylethanol]",-10.7,-7.04
OCc1ccccc1O[C@@H]1O[C@H](CO)[C@@H](O)[C@H](O)[C@H]1O [Salicoside],15.5,-6.59
CC(C)=CCC[C@](C)(O[C@@H]1O[C@H](CO[C@@H]2O[C@@H](CO)[C@H](O)[C@H]2O)[C@@H](O)[C@H](O)[C@H]1O)[C@H]1CC[C@]2(C)[C@@H]1[C@H](O)C[C@@H]1[C@@]3(C)CC[C@H](O[C@@H]4O[C@H](CO)[C@@H](O)[C@H](O)[C@H]4O[C@@H]4O[C@H](CO)[C@@H](O)[C@H](O)[C@H]4O)C(C)(C)[C@@H]3CC[C@]12C [Ginsenoside Rc],1.83,-1.92
CC(C)=CCc1cc2c(cc1O)oc(=O)c1c3ccc(O)cc3oc21 [Psoralidin],20.7,3.47
C[C@H]1O[C@@H](O[C@H]2CC[C@@]3(C)[C@@H](CC[C@]4(C)[C@@H]3C=C[C@]35OC[C@@]6(CCC(C)(C)C[C@H]63)[C@H](O)C[C@]54C)[C@]2(C)CO)[C@H](O)[C@@H](O[C@@H]2O[C@H](CO)[C@@H](O)[C@H](O)[C@H]2O)[C@H]1O [Saikosaponin D],91.8,91.9
CCOC(=O)c1ccc(O)c(OC)c1 [Ethyl Vanillate],-15,9.04
COc1ccc(-c2oc3c(CC=C(C)C)c(O[C@@H]4O[C@H](CO)[C@@H](O)[C@H](O)[C@H]4O)cc(O)c3c(=O)c2O)cc1 [Icariside I],38.6,-2.4
O=c1ccn([C@@H]2O[C@H](CO)[C@@H](O)[C@H]2O)c(=O)[nH]1 [Uridine],-2.38,-10.7
OC[C@H]1O[C@@H](Oc2cc(O)cc(/C=C/c3ccc(O)cc3)c2)[C@H](O)[C@@H](O)[C@@H]1O [Piceid],-5.29,-8.59
C=Cc1c(C)c2cc3[nH]c(cc4nc(cc5nc(cc1[nH]2)C(C)=C5CCC(=O)O)C(CCC(=O)O)=C4C)c(C)c3C=C [Protoporphyrin IX],21.8,3.09
Nc1ncnc2c1ncn2C1CC(O)C(CO)O1 (stereo not drawn) [2'-Deoxyadenosine monohydrate],4.41,-4.4
C=CCc1ccc(O)c(-c2cc(CC=C)ccc2O)c1 [Magnolol],-24.3,-1.21
CCOC(=O)c1c(C)cc(O)cc1O [Orsellinic acid ethyl ester],0.0873,-18.7
C[C@@H]1CC[C@@]2(OC1)O[C@H]1C[C@H]3[C@@H]4CC=C5C[C@@H](O[C@@H]6O[C@H](CO)[C@@H](O)[C@H](O[C@@H]7O[C@H](CO)[C@@H](O)[C@H](O)[C@H]7O)[C@H]6O[C@@H]6O[C@@H](C)[C@H](O)[C@@H](O)[C@H]6O)CC[C@]5(C)[C@H]4CC[C@]3(C)[C@H]1[C@@H]2C [Gracillin],93.3,92.4

# Record cards (already shown). Order of values: cell growth inhibition ratio [1] [%] | cell growth inhibition ratio [2] [%]
# `CC(C)=CCc1cc2c(cc1O)oc(=O)c1c3ccc(O)cc3oc21` [Psoralidin] in the list: 20.7 | 3.47
# `C=CCc1ccc(O)c(-c2cc(CC=C)ccc2O)c1` [Magnolol] in the list: -24.3 | -1.21
# `OCc1ccccc1O[C@@H]1O[C@H](CO)[C@@H](O)[C@H](O)[C@H]1O` [Salicoside] in the list: 15.5 | -6.59

# (list continues)

Structure (SMILES),cell growth inhibition ratio [1] [%],cell growth inhibition ratio [2] [%]
COc1ccc2ccc(=O)oc2c1CC=C(C)C [Osthole],-3.45,-6.85
O=c1[nH]cnc2nc[nH]c12 [6-Hydroxypurine],-1.29,-22.6
Nc1ncnc2c1ncn2[C@@H]1O[C@H](COP(=O)(O)OP(=O)(O)O)[C@@H](O)[C@H]1O,25.9,-3.38
CC1=C(C/C=C(\C)CCC[C@H](C)CCC[C@H](C)CCCC(C)C)C(=O)c2ccccc2C1=O [Vitamin K1],15.9,-4.55
Cn1c(=O)c2c(ncn2CC(=O)O)n(C)c1=O [Theophylline-7-acetic acid],-1.29,-7.27
Nc1nc(=O)c2nc(CNc3ccc(C(=O)N[C@@H](CCC(=O)O)C(=O)O)cc3)cnc2[nH]1 [Folic acid],6.32,-1.05
N[C@@H](Cc1cc(I)c(Oc2cc(I)c(O)c(I)c2)c(I)c1)C(=O)O [L-Thyroxine],28.5,-8.75
COC(=O)CC[C@@H](C)[C@H]1CC[C@H]2[C@@H]3[C@H](O)C[C@@H]4C[C@H](O)CC[C@]4(C)[C@H]3C[C@H](O)[C@]12C [Methyl Cholate],12.9,-7.83
C=C(C)[C@@H]1CC[C@]2(C)[C@H](CC=C3[C@@H]4[C@@H](C)[C@H](C)CC[C@]4(C)CC[C@]32C)[C@@]1(C)CCC(=O)O [Roburic acid],23.8,20.3
CN1CC(=O)NC1=N [Creatinine],-14.8,5.37
O=P(O)(O)O[C@H]1[C@H](OP(=O)(O)O)[C@@H](OP(=O)(O)O)[C@H](OP(=O)(O)O)[C@@H](OP(=O)(O)O)[C@H]1OP(=O)(O)O [Phytic acid],16.5,4.32
O=C1O[C@H]([C@@H](O)CO)C(O)=C1O [L(+)-Ascorbic acid],10.7,2.06
OC1OC[C@@H](O)[C@@H](O)[C@@H]1O (stereo partly drawn) [D(-)-Arabinose],3.45,4.31
CO[C@@]12[C@H](COC(N)=O)C3=C(C(=O)C(C)=C(N)C3=O)N1C[C@@H]1N[C@@H]12 [Mitomycin C],91.7,83.6
C[C@@H]1O[C@@H](OC[C@H]2O[C@@H](Oc3c(-c4ccc(OCCO)c(OCCO)c4)oc4cc(OCCO)cc(O)c4c3=O)[C@H](O)[C@@H](O)[C@@H]2O)[C@H](O)[C@H](O)[C@H]1O [Troxerutin],-1.04,-4.79
COC(=O)C[C@](O)(CCCC(C)(C)O)C(=O)O[C@@H]1C(OC)=C[C@]23CCCN2CCc2cc4c(cc2[C@H]13)OCO4 [Homoharringtonine],93.7,89.5
O=C1c2cccc3c2[C@H](CCC3)CN1[C@@H]1CN2CCC1CC2 [Palonosetron hydrochloride],8.03,-2.98
N[C@@H](CCC(=O)N[C@@H](CS)C(=O)NCC(=O)O)C(=O)O [Glutathione],5.75,9.47
C/C(=C\C(=O)OCCCCCCCCC(=O)O)C[C@@H]1OC[C@H](C[C@@H]2O[C@H]2[C@@H](C)[C@H](C)O)[C@@H](O)[C@H]1O [Mupirocin],-7.27,-21.4
O=C(O[C@@H]1O[C@@H]2COC(=O)c3cc(O)c(O)c(O)c3-c3c(cc(O)c(O)c3O)C(=O)O[C@H]([C@H]1O)[C@@H]2O)c1cc(O)c(O)c(O)c1 [Corilagin],9.5,3.77
O=C(O)[C@]1(O)C[C@@H](O)[C@@H](O)[C@H](O)C1 [Quinic acid],-4,-2.23
CC1=CC(=O)CC(C)(C)[C@@]1(O)/C=C/C(C)=C\C(=O)O [Abscisic acid],-1.65,-7.47
C=C1CC[C@H]2O[C@]2(C)CC[C@@H]2[C@@H]1CC2(C)C [Caryophyllene oxide],10.6,-11.8
COc1ccc(C(C)=O)c(O)c1 [Paeonol],-4.3,4.31
CC1(C)CCC[C@](C)([C@H]2CC[C@]3(C)[C@@H]2[C@H](O)C[C@@H]2[C@@]4(C)CC[C@H](O)C(C)(C)[C@@H]4CC[C@]23C)O1 [Panaxadiol],1.47,8.09
OCc1ccc(O[C@@H]2O[C@H](CO)[C@@H](O)[C@H](O)[C@H]2O)cc1 [Gastrodin],-0.967,-10.2
O=c1cc(-c2ccccc2)oc2cc(O[C@@H]3O[C@H](CO[C@@H]4O[C@H](CO)[C@@H](O)[C@H](O)[C@H]4O)[C@@H](O)[C@H](O)[C@H]3O)c(O)c(O)c12 [Oroxin B],8.89,2.14
